Reference: patent US20230174608A1, “Polypeptide Derivative Having Dual Receptor Agonistic Action and Use Thereof” (TIANJIN INSTITUTE OF PHARMACEUTICAL RESEARCH CO., LTD., priority 2020, published 2023)
Not every detail of the peptide structures is certain; ends, links or a residue may be inferred. Marks after values point to notes of the source that are not given here. *1 amine or outer side, *2 acyl side, *3 side chain or, on linkers, in order; H or OH if unused. Where a SMILES comes first, the peptide text is derived from it. Side-chain parts run from the residue outwards. [ ]: non-standard residue; d: D form. The star is where a group is joined. C18 diacid = O=C(O)CCCCCCCCCCCCCCCCC(=O)*; γGlu = O=C(O)[C@H](CCC(=O)[*:2])N[*:1]; AEEA = NCCOCCOCC(=O)O; Aib = CC(C)(N)C(=O)O

System: glucose loaded normal mice
Test: Glucose loading test on normal mice after single administration
Format: in vivo, Kunming mice
Experimental: The hypoglycemic action of each compound of Example 1 was assessed by a glucose loading test on normal mice after single administration.
Method: Kunming mice (male, with a weight of 20-22 g) were acclimated in a barrier environment animal room for 3 days, divided into a blank control group, a model control group, a positive control group, and test compound groups, 5 mice in each group, and fasted for 6 h. Saline was administered to each mouse in the blank control group and the model control group, the compounds and a positive control drug were respectively administered to each mouse in the test compound groups and the positive control group at a dose of 30 nmol/kg, and the positive control drug was semaglutide. 60 min after administration, glucose was intragastrically administered to each mouse in the model control group, the positive control group, and the test compound groups at a dose of 2.5 g/kg (0.01 mL·g^−1 weight), distilled water was administered to each mouse in the blank control group, and blood glucose levels were determined 30 min after glucose loading.

CC[C@H](C)[C@H](NC(=O)[C@H](Cc1ccccc1)NC(=O)[C@H](CCC(=O)O)NC(=O)[C@H](CCCCNC(=O)COCCOCCNC(=O)COCCOCCNC(=O)CC[C@H](NC(=O)CCCCCCCCCCCCCCCCC(=O)O)C(=O)O)NC(=O)[C@H](C)NC(=O)[C@H](C)NC(=O)[C@H](CCCNC(=N)N)NC(=O)[C@H](CCC(=O)O)NC(=O)[C@H](CCC(=O)O)NC(=O)[C@H](CC(C)C)NC(=O)[C@H](Cc1ccc(O)cc1)NC(=O)[C@H](CCCCN)NC(=O)[C@H](CO)NC(=O)[C@H](Cc1ccc(O)cc1)NC(=O)[C@H](CC(=O)O)NC(=O)[C@H](CO)NC(=O)[C@@H](NC(=O)[C@H](Cc1ccccc1)NC(=O)[C@@H](NC(=O)CNC(=O)[C@H](CCC(N)=O)NC(=O)C(C)(C)NC(=O)[C@@H](N)Cc1c[nH]cn1)[C@@H](C)O)[C@@H](C)O)C(=O)N[C@@H](C)C(=O)N[C@@H](Cc1c[nH]c2ccccc12)C(=O)N[C@@H](CC(C)C)C(=O)N[C@@H](CCC(=O)O)C(=O)N[C@@H](C)C(=O)NCC(=O)NCC(N)=O [dgc006] (H-H[Aib]QGTFTSDYSKYLEERAAK([AEEA-AEEA-γGlu-C18 diacid])EFIAWLEAGG-NH2; N-terminus assumed)
Blood glucose reduction rate (%) (30 nmol/kg single dose, after glucose loading, versus model control group): 52.82%
Blood glucose level after glucose loading (30 nmol/kg single dose, glucose 2.5 g/kg intragastric 60 min after administration, measured 30 min after loading, n=5): 8.02 ± 2.92**^ mmol/L
Inhibition of the rise of blood glucose after glucose loading (in words) (30 nmol/kg single dose, normal mice): equivalent to that of the positive control drug
Fasting blood glucose level (normal mice fasted 6 h, 30 nmol/kg group, n=5): 3.80 ± 0.51 mmol/L
